Assay results: PMC12411612

Columns and labels:
[1] = target: Flag-myocardin (adenovirus, in T/G HA-VSMCs) (not stated (human myocardin cDNA cloned for the plasmids)); test: co-IP; nuclear extracts of T/G HA-VSMCs infected with Flag-myocardin adenovirus; 300 µg extract, antibody at 4 °C overnight, protein-A/G agarose, washed three times with RIPA lysis buffer; unspecific IgG as control; also with Ad-PARP1 or Ad-mut-PARP1 infection
[2] = target: His-myocardin (human); test: co-IP; HEK293T cells transfected at once with pcDNA3.1-His-myocardin, p3×FLAG-CMV9-PARP1 and pcDNA-3.1-HA-SRF; co-IP with anti-tag antibodies

Binder	binding [1]	binding [2]
SRF (endogenous, T/G HA-VSMC) (protein, UniProt P11831 1-508) MLPTQAGAAAALGRGSALGGSLNRTPTGRPGGGGGTRGANGGRVPGNGAGLGPGRLEREAAAAAATTPAPTAGALYSGSEGDSESGEEEELGAERRGLKRSLSEMEIGMVVGGPEASAAATGGYGPVSGAVSGAKPGKKTRGRVKIKMEFIDNKLRRYTTFSKRKTGIMKKAYELSTLTGTQVLLLVASETGHVYTFATRKLQPMITSETGKALIQTCLNSPDSPPRSDPTTDQRMSATGFEETDLTYQVSESDSSGETKDTLKPAFTVTNLPGTTSTIQTAPSTSTTMQVSSGPSFPITNYLAPVSASVSPSAVSSANGTVLKSTGSGPVSSGGLMQLPTSFTLMPGGAVAQQVPVQAIQVHQAPQQASPSRDSSTDLTQTSSSGTVTLPATIMTSSVPTTVGGHMMYPSPHAVMYAPTSGLGDGSLTVLNAFSQAPSTMQVSHSQVQEPGGVPQVFLTASSGTVQIPVSAVQLHQMAVIGQQAGSSSNLTELQVVNLDTAHSTKSE	binds	–
HA-SRF (pcDNA-3.1-HA-SRF), serum response factor (protein, UniProt P11831 1-508) MLPTQAGAAAALGRGSALGGSLNRTPTGRPGGGGGTRGANGGRVPGNGAGLGPGRLEREAAAAAATTPAPTAGALYSGSEGDSESGEEEELGAERRGLKRSLSEMEIGMVVGGPEASAAATGGYGPVSGAVSGAKPGKKTRGRVKIKMEFIDNKLRRYTTFSKRKTGIMKKAYELSTLTGTQVLLLVASETGHVYTFATRKLQPMITSETGKALIQTCLNSPDSPPRSDPTTDQRMSATGFEETDLTYQVSESDSSGETKDTLKPAFTVTNLPGTTSTIQTAPSTSTTMQVSSGPSFPITNYLAPVSASVSPSAVSSANGTVLKSTGSGPVSSGGLMQLPTSFTLMPGGAVAQQVPVQAIQVHQAPQQASPSRDSSTDLTQTSSSGTVTLPATIMTSSVPTTVGGHMMYPSPHAVMYAPTSGLGDGSLTVLNAFSQAPSTMQVSHSQVQEPGGVPQVFLTASSGTVQIPVSAVQLHQMAVIGQQAGSSSNLTELQVVNLDTAHSTKSE	–	binds

Results are given in words; binding and its absence hold for the method and conditions named. In cells and extracts the contact can be indirect. A result given as binding can be weak or reduced; the word gives no strength. Sequences can lack the tags named with a protein.
